This passage reports Mahalanobis distance results from the supplement of paper PMC7752906.

Some of the results follow. Single values are uncertain here, since repeats match poorly.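 Wells held roughly 40 S. mansoni schistosomula, imaged in bright field over time against wells given 0.1% DMSO. The paper defines hits as drugs with a Mahalanobis distance of at least 2.47, three standard deviations above the DMSO control mean. Degeneracy is the proportion of worms classified as opaque.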

In this assay the test system is Schistosoma mansoni schistosomula. In words: Mahalanobis distance of static-rate-frequency phenotype descriptors from DMSO controls (dimensionless); higher = stronger phenotypic change versus DMSO. The note with it: 10 µM; 72 h.
In the case of `NCCCC(O)(P(=O)(O)O)P(=O)(O)O` [Alendronate Sodium], the Mahalanobis distance is inactive: 2.07. For the compound `CNC[C@H](O)[C@@H](O)[C@H](O)[C@H](O)CO` [Meglumine], the Mahalanobis distance was inactive: 1.34. For `Cc1ccnc(NS(=O)(=O)c2ccc(N)cc2)n1` [Sulfamerazine], the Mahalanobis distance was inactive: 1.61. As for `NC(=O)OCC(COC(N)=O)c1ccccc1` [Felbamate], the figure is inactive: 1.16.

`[O-][n+]1cccc(CO)c1` [Mepiroxol]: the Mahalanobis distance is inactive: 2.16. On to `CC(=O)N[C@@H](CS)C(=O)O` [Acetylcysteine], for which the Mahalanobis distance was inactive: 1.39. For `CC(C)CCCC(C)N` (centres undefined) [Octodrine], the Mahalanobis distance is inactive: 1.55. As for `CCN(CC)C(=O)/C(C#N)=C/c1cc(O)c(O)c([N+](=O)[O-])c1` [Entacapone], the figure is inactive: 1.11.

With `C[C@@H]1O[C@@H](OC[C@H]2O[C@@H](Oc3c(-c4ccc(OCCO)c(OCCO)c4)oc4cc(OCCO)cc(O)c4c3=O)[C@H](O)[C@@H](O)[C@@H]2O)[C@H](O)[C@H](O)[C@H]1O` [Troxerutin], the Mahalanobis distance was inactive: 2.02.

Take `CC1(C)O[C@@H]2C[C@H]3[C@@H]4CCC5=CC(=O)CC[C@]5(C)[C@@]4(F)[C@@H](O)C[C@]3(C)[C@]2(C(=O)CCl)O1` [Halcinonide]: the Mahalanobis distance was active: 3.13.

As to `C[C@]12C=CC(=O)C=C1CC[C@H]1[C@@H]3C[C@@H](O)[C@](O)(C(=O)CO)[C@@]3(C)C[C@H](O)[C@@]12F` [Triamcinolone], the Mahalanobis distance is inactive: 1.94.

Regarding `Cc1cc(C)cc(OCC2CNC(=O)O2)c1` (centres undefined) [Metaxalone], the Mahalanobis distance was active: 2.98.

Regarding `CC(=O)O[C@H]1C[C@@H]2CC[C@@H]3[C@H](CC[C@@]4(C)[C@H]3C[C@H]([N+]3(C)CCCCC3)[C@@H]4OC(C)=O)[C@@]2(C)C[C@@H]1N1CCCCC1` [Vecuronium Bromide], the Mahalanobis distance was inactive: 1.2. As to `C[C@@H](O)[C@H]1C(=O)N2C(C(=O)O)=C(S[C@@H]3CN[C@H](C(=O)N(C)C)C3)[C@H](C)[C@H]12` [Meropenem], the Mahalanobis distance was inactive: 1.43. For `CC1(C)C[C@@H]1C(=O)N/C(=C\CCCCSC[C@H](N)C(=O)O)C(=O)O` [Cilastatin], the Mahalanobis distance was inactive: 1.16. For the compound `CO/N=C(\C(=O)N[C@@H]1C(=O)N2C(C(=O)[O-])=C(C[N+]3(C)CCCC3)CS[C@H]12)c1csc(N)n1` [Cefepime], the Mahalanobis distance is inactive: 1.41. In the case of `CNCCCC12CCC(c3ccccc31)c1ccccc12` [Maprotiline], the Mahalanobis distance was inactive: 1.65. Regarding `OC(c1cc(C(F)(F)F)nc2c(C(F)(F)F)cccc12)C1CCCCN1` (centres undefined) [mefloquine], the Mahalanobis distance is inactive: 1.56. Turning to `O=C(NCCN1CCOCC1)c1ccc(Cl)cc1` [Moclobemide], the Mahalanobis distance was active: 4.74.
